Assay results as given in PubChem BioAssay AID1671190 (National Center for Advancing Translational Sciences (NCATS), 2021).
“And” between values parts separate entries of the source, which are not always exact repeats. Equal values may be shown once. Out of some 580,000 compounds screened, about 6,100 (1.1%) were called active. The shares of active, inactive and inconclusive entries below differ from those in the screen. The call rests on the fitted dose curve; in most records, active means well fitted inhibition curve with a large enough effect; inconclusive means small, poorly fitted or top-dose-only effect, or another doubt; inactive means no such curve, though single readings can be large or run the other way. Potencies beside an inconclusive call are fits to weak or partial responses and may not hold up.

Amino acid sequences for entries named in this document (tags omitted). A change or cut given only in a name is not applied to a line headed by its entry.
UniProt P18054: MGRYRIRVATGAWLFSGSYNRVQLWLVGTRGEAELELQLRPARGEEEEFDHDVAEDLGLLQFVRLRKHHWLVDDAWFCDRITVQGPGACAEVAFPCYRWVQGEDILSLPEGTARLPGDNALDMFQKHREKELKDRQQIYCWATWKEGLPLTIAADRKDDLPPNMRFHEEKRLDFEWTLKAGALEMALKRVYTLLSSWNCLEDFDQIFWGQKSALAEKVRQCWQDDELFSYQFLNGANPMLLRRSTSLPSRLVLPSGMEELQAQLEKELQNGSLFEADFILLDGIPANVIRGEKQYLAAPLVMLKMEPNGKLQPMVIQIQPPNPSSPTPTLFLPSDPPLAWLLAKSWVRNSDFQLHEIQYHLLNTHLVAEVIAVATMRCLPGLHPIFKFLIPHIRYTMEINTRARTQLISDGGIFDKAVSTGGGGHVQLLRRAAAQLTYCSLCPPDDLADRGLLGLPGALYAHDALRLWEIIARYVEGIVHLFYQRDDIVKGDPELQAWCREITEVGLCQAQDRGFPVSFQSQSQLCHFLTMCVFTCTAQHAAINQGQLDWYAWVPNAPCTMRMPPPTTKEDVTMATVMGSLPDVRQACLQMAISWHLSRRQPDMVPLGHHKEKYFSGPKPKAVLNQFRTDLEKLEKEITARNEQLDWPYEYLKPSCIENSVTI

Each compound was assayed against Polyunsaturated fatty acid lipoxygenase ALOX12 (Homo sapiens) (UniProt P18054) (assay: Primary qHTS assay for inhibitors of human arachidonate 12S-lipoxygenase (ALOX12): Round 2). Conditions: purified 12hLO, xylenol orange hydroperoxide absorbance; activity change, negative = inhibition: at 108 µM (top of the series) unless noted.
In short: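 Purified human 12hLO (150 nM final) in 25 mM Hepes, 0.01% Triton X-100, pH 7.0 was preincubated 15 min at room temperature with compound. Then 40 uM arachidonic acid was added, 30 min. Hydroperoxide was read by Fe-XO absorbance ratio 573/405 nm.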
On the % scale 0 is the no-effect control and ±100 the full control effect; potency means the concentration at half of the fitted maximal effect.

Compound	activity change, negative = inhibition	Potency
O=C(NC1CC(=O)N(c2cccc(F)c2)C1)c1cc2ccccc2o1 (centres undefined)	inactive: -20.9%	–
Cc1ccc(C(=O)Nc2ccccc2C(=O)N2CCCCCC2)cc1	–	inconclusive: 35.5 µM [inhibitor, single point]
COc1ccc(OCC(=O)NNc2c3ccccc3nc3ccccc23)cc1	inactive: 3.44%	–
Cc1ccc(-c2nc(CS(=O)(=O)CC(=O)N3CCN(c4cc(C)ccc4C)CC3)c(C)o2)cc1	inactive: -0.358%	–
O=C(CC1(O)C(=O)N(C/C=C/c2ccccc2)c2ccccc21)c1ccccn1 (centres undefined)	inactive: -6.54%	–
COc1cc(NC(=O)c2ccc(-c3ncn[nH]3)cc2)ccc1NC(=O)C(C)(C)C	inactive: 13.2%	–
COc1ccc(Nc2ncnc3c2cnn3-c2ccc(C)cc2)cc1Cl	–	inconclusive: 44.7 µM [inhibitor, partial curve]
CC(C)(C)c1cc(NS(=O)(=O)c2ccc3c(c2)OCCO3)on1	–	inconclusive: 44.7 µM [inhibitor, partial curve, poor fit]
COc1ccc(C(=O)N2CCCC(c3noc(COc4ccccc4F)n3)C2)cc1OC (centres undefined)	–	inconclusive: 17.8 µM [inhibitor, full curve, poor fit]
COc1ccc(-n2c(O)c(C=Nc3ccccc3)c3ccccc3c2=O)cc1	inactive: -14.3%	–
Cc1ccc(S(=O)(=O)N(CCC(=O)NCc2ccccc2F)c2ccccc2)cc1	–	inconclusive: 39.8 µM [inhibitor, partial curve, poor fit]
CNC(=O)NC(=O)C(C)Sc1ccccc1Cl (centres undefined)	inactive: -5.62%	–
Cc1cc(C(=O)COC(=O)c2ccc(CO)cc2)c(C)s1	inactive: 1.63%	–
COc1cc2c(cc1OC)C1(CCCC1)CNC2c1ccc([N+](=O)[O-])cc1 (centres undefined)	–	inconclusive: 39.8 µM [inhibitor, partial curve]
COc1ccc(-c2n[nH]c(=S)n2-c2ccc(C)cc2)cc1	–	active: 17.8 µM
COc1ccc(C(C)(NC(C)=O)c2nc(-c3cccc(C#N)c3)cs2)cc1 (centres undefined)	–	inconclusive: 112 µM [inhibitor, single point]
Cc1ccccc1-c1cc2nc(-c3ccc([N+](=O)[O-])cc3)cc(=O)n2[nH]1	–	inconclusive: 0.447 µM [inhibitor, full curve, poor fit]
CC[n+]1c(C)sc2c(C)cc(C)cc21	–	inconclusive: 6.31 µM [inhibitor, full curve, poor fit]
COc1ccc(CNC(=O)CSc2cc(C)c3ccc(OC)cc3n2)cc1	inactive: -1.89%	–
NC(N)=Nc1nc(-c2ccccc2)c2ccccc2n1	–	inactive and inconclusive: 50.1 µM [inhibitor, partial curve, poor fit]
Nc1[nH]c(C(=O)c2ccccc2)c(-c2ccc(Cl)cc2)c1C(=O)c1c[nH]c2ccccc12	inactive: -24.5%	–
CCNC(=S)NNC(=O)c1ccc(OC)cc1	inactive: 4.96%	–
Cc1ccc(C=O)n1-c1ccncc1	inactive: -3.54%	–

Whole records, looked up by structure. Order of values: activity change, negative = inhibition	Potency
COc1ccc(Nc2ncnc3c2cnn3-c2ccc(C)cc2)cc1Cl is entered as –	inconclusive: 44.7 µM [inhibitor, partial curve]
Cc1ccc(-c2nc(CS(=O)(=O)CC(=O)N3CCN(c4cc(C)ccc4C)CC3)c(C)o2)cc1 is entered as inactive: -0.358%	–
CC(C)(C)c1cc(NS(=O)(=O)c2ccc3c(c2)OCCO3)on1 is entered as –	inconclusive: 44.7 µM [inhibitor, partial curve, poor fit]
Cc1ccc(C=O)n1-c1ccncc1 is entered as inactive: -3.54%	–

The list continues:

Compound	activity change, negative = inhibition	Potency
COCC(=O)N1CC(C(=O)O)C2(CCOCC2)C1 (centres undefined)	–	inconclusive: 7.08 µM [inhibitor, partial curve]
O=C(O/N=C/c1cccc([N+](=O)[O-])c1)C1CC1	–	inconclusive: 126 µM [inhibitor, single point]
Cc1cc(=O)oc2cc(NC(=O)c3ccccc3C(=O)O)ccc12	–	inconclusive: 79.4 µM [inhibitor, single point]
CCCNC(=O)CSc1cc(C)c2cc(C)cc(C)c2n1	–	inconclusive: 56.2 µM [inhibitor, partial curve, poor fit]
O=C(c1ccc2nccnc2c1)N1CCN(Cc2ccc3c(c2)OCO3)CC1	inactive: -18.7%	–
CCCSCCCNC(=O)c1ccc2c(c1)sc1nc(-c3ccc(OCC)cc3)cn12	–	inconclusive: 50.1 µM [inhibitor, partial curve, poor fit]
COc1cccc(-c2ncc3ccccn23)c1	–	inconclusive: 0.398 µM [inhibitor, full curve, poor fit]
COc1ccc(-c2noc([C@@H]3C[C@@H](O)CN3Cc3ccc(F)cc3)n2)cc1	–	inconclusive: 25.1 µM [inhibitor, full curve]
O=C1NC[C@H](Cc2ccc(O)cc2)N(C[C@@H]2CCCN2C[C@H](Cc2ccc(O)cc2)N2C[C@H](Cc3ccccc3)N(CCc3ccccc3)C(=O)C2=O)C1=O	–	inconclusive: 89.1 µM [inhibitor, single point]
Nc1nc(CNC(c2ccccc2)c2ccccc2)nc(Nc2ccccc2)n1	inactive: 2.16%	–
COc1cccc(NC(=O)CN(C)C(=O)c2cc3c(s2)CCC3)c1	–	inconclusive: 22.4 µM [inhibitor, partial curve, poor fit]
O=C(c1ccco1)N1CCN(CC(=O)N2c3ccccc3CCc3ccccc32)CC1	–	inconclusive: 1.78 µM [inhibitor, full curve, poor fit]
CC(=O)Nc1ccc(NC(=O)c2nnn(-c3ccc4noc(-c5ccc(Cl)cc5)c4c3)c2C)cc1	–	inconclusive: 44.7 µM [inhibitor, partial curve]
CCOc1ccccc1NC(=O)CN(c1ccc(Cl)cc1)S(C)(=O)=O	–	inconclusive: 112 µM [inhibitor, single point]
CC1(C)CC(=O)C(N=Nc2c(F)cccc2F)=C(O)C1	–	inconclusive: 3.55 µM [inhibitor, full curve, poor fit]
CS(=O)(=O)Nc1cccc(C2=NN(S(=O)(=O)c3ccccc3)C(c3ccco3)C2)c1 (centres undefined)	–	inconclusive: 35.5 µM [inhibitor, partial curve, poor fit]
COc1cc(-c2cc(C(=O)N(C)Cc3ccccc3)c3ccccc3n2)cc(OC)c1OC	–	inconclusive: 89.1 µM [inhibitor, partial curve, poor fit]
c1ccc(-c2csc(NNC3=NCCCCC3)n2)cc1	–	inconclusive: 44.7 µM [inhibitor, partial curve, poor fit]
COc1ccc(C2NC(=S)N(Cc3ccc(Cl)cc3)C(C)=C2C(C)=O)cc1 (centres undefined)	–	inconclusive: 44.7 µM [inhibitor, partial curve, poor fit]
CN1c2ccc(Cl)cc2-c2nc(SCC(=O)NCc3ccccc3)ncc2S1(=O)=O	–	inconclusive: 158 µM [inhibitor, single point]
CN(CCc1ccncc1)C(=O)CCc1ccnc(N2CCOCC2)c1	–	inconclusive: 10 µM [inhibitor, partial curve]
COCC(C)n1c(C)cc(C(=O)CSc2nnc(-c3ccoc3C)n2-c2ccccc2)c1C (centres undefined)	inactive: 8.11%	–
COc1ccc(C2/C=C\CN(CC(C)(C)C)CC(=O)N2Cc2ccc(F)cc2)cc1 (centres undefined)	–	inconclusive: 50.1 µM [inhibitor, partial curve, poor fit]

Compound	activity change, negative = inhibition	Potency
CCOc1ccc(CCNC(=O)C(O)c2ccccc2)cc1 (centres undefined)	inactive: 0%	–
COc1cc2c(cc1OC)C(c1ccc(-c3ccc(Cl)cc3Cl)o1)=NCC2	–	inconclusive: 39.8 µM [inhibitor, partial curve, poor fit]
C/C=C/C(=O)Nc1cccc(C2=NOC3(C2)C[C@@H](C(N)=O)N(C(=O)c2cc([N+](=O)[O-])cc([N+](=O)[O-])c2C)C3)c1 (some centres undefined)	–	inconclusive: 20 µM [inhibitor, full curve, poor fit]
O=C(O)CS(=O)(=O)CCCc1ccccc1	inactive: -62.8%	–
O=C(CCc1ncc(-c2ccc(F)cc2)o1)NCc1ccc(Cl)cc1	inactive: -43.6%	–
COc1ccc(-c2onc(C)c2C)cc1S(=O)(=O)NCC1CCN(Cc2cc(C)ccc2C)CC1	–	inconclusive: 56.2 µM [inhibitor, partial curve, poor fit]
O=C(O)c1cnc(-c2ccccc2)nc1	–	inconclusive: 15.8 µM [inhibitor, full curve, poor fit]
CCc1c(C)sc(NC(=O)CCl)c1C#N	–	inconclusive: 31.6 µM [inhibitor, partial curve, poor fit]
COc1cccc(-c2nn(-c3ccccc3)c(OC(C)=O)c2-c2ccc(NC(=O)c3ccco3)cc2)c1	inactive: 21.2%	–
O=C(CSc1nnc(Nc2ccccc2)s1)c1ccc(Cl)s1	inactive: -14.7%	–
Cc1cc(C(=O)NCCCN2CCCCCC2=O)c2ccc(F)cc2n1	inactive: 18.3%	–
Cc1cc(SCC(=O)N2CCOCC2)nc2c(C)cccc12	–	inconclusive: 112 µM [inhibitor, single point]
COC(=O)c1ccc(OCCCCN(C)Cc2ccccc2)cc1	–	inconclusive: 0.794 µM [inhibitor, full curve, poor fit]
COc1cc(/C=C(/C#N)c2nc3ccccc3[nH]2)cc(OC)c1	inactive: 11.8%	–
CC(C)(C)OC(=O)N1CCCN(C(=O)c2ccc(Cl)cc2)CC1	–	inconclusive: 50.1 µM [inhibitor, single point]
CC(=O)N(c1ccccc1C)C1CCCC1	inactive: -1.46%	–
Cc1ccc(N=Cc2c(O)ccc3ccccc23)cc1F	inactive: -14.2%	–
COCCNC(=O)C1(C)CCCN(Cc2ccccc2N(C)C)C1 (centres undefined)	inactive: -5.22%	–
Cc1cccc(NC(=S)NCCC(c2ccccc2)c2ccccc2)c1	–	active: 35.5 µM
COc1cccc(/C(O)=C2\C(=O)C(=O)N(CCc3ccccc3)C2c2ccc(O)cc2)c1 (centres undefined)	–	inconclusive: 56.2 µM [inhibitor, partial curve, poor fit]
COc1ccc(Br)cc1C(=O)Nc1ccc(N2CCN(S(C)(=O)=O)CC2)cc1	–	inconclusive: 31.6 µM [inhibitor, single point]
COc1ccc(C(C)(C)C)cc1NC(=O)c1ccc2c(c1)NC(=O)CS2	–	inconclusive: 39.8 µM [inhibitor, partial curve, poor fit]
Cc1ccc2nc(-c3ccc(C#N)cc3)c(Cc3cccc(F)c3)n2c1	–	inconclusive: 100 µM [inhibitor, single point]
